Measurements published in PubChem BioAssay AID493014 (National Center for Advancing Translational Sciences (NCATS), 2011).
The list shows a part of the results. The main result of the screen is listed elsewhere. These columns were measured beside it and carry no call. Compounds called inactive in the main read-out are mostly missing here. The note in brackets gives the kind of curve behind each potency; many fits are weak.

Assay: qHTS Assay to Find Inhibitors of Chronic Active B-Cell Receptor Signaling
Settings: ABC-DLBCL IkBa-CBG/CBR reporter, luminescence ratio (green luciferase fused to IkBa over red control in TMD8 lymphoma cells), 4 h
How it was run: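 TMD8 human ABC-DLBCL cells with doxycycline-inducible IκBα–green luciferase fusion and unfused red luciferase, in 0.5% FBS medium; compounds up to 46 uM, 4 h at 37C. Green/red luminescence ratio, filter-overlap corrected, fitted to concentration-response curves.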

[1] = measured here: CBR red luminescence, cell number
[2] = measured here: IkBa-CBG green luminescence

| SMILES | AC50 [1] | AC50 [2] |
| --- | --- | --- |
| CNc1nc(N/N=C/c2ccc([N+](=O)[O-])cc2)nc(Nc2ccccc2)n1 | 29.1 µM [falling, single point] | 23.1 µM [rising, partial curve, poor fit] |
| CC(C)c1cc(C(=O)Nc2cccc(Cl)c2)no1 | 12.6 µM [falling, single point] |  |
| CCOC(=O)c1[nH]c(C)c(C(=O)Nc2cc(OC)ccc2OC)c1C | 6.51 µM [falling, partial curve, poor fit] | 23.1 µM [falling, single point] |
| CCc1ccc(Sc2cc(C(=O)NCCCN3CCCC(C)C3)c3ccccc3n2)cc1 (configuration not stated) | 22.4 µM [falling, single point] |  |
| N#Cc1ccc(C23CC4(C2)[C@H](CN(P(=O)(c2ccccc2)c2ccccc2)[C@@H]4c2ccccc2)C3c2ccc(Cl)nc2)cc1 (some centres not stated) | 3.98 µM [falling, partial curve] | 11.2 µM [rising, partial curve] |
| CN(C)CCCNc1ccc(-c2cc(Nc3cccc(Cl)c3)ncn2)cn1 | 14.1 µM [falling, single point] |  |
| CC(=O)Nc1ccc(S(=O)(=O)n2nc(-c3ccc(C)cc3)nc2N)cc1 | 35.5 µM [rising, partial curve, poor fit] |  |
| N#CCCC12CCCCC1=Nc1ccccc12 (configuration not stated) | 0.891 µM [rising, full curve, poor fit] |  |
| NC(=S)NNc1c(F)c(F)c(F)c(F)c1F | 12.6 µM [rising, single point] |  |
| C[C@H]1NC(=O)[C@@]2(C)[C@H](c3ccccc3)[C@H]3COc4ccccc4[C@@H]3N2C1=O | 2.31 µM [falling, partial curve, poor fit] |  |
| CCN1/C(=C/c2ccc3ccccc3[n+]2CCCS(=O)(=O)[O-])C=Cc2cc(C)ccc21 | 0.224 µM [rising, full curve] |  |
| COc1ccc(S(=O)(=O)N2CCCCC2)cc1NC(=O)CSc1ncnc2ccccc12 | 13 µM [falling, single point] |  |
| COC(=O)c1cccc(C(=O)Nc2ccc(F)cc2)n1 | 35.5 µM [falling, single point] |  |
| COc1cc(C(=O)OC2CC3CCC2(C)C3(C)C)ccc1OC(C)=O (configuration not stated) | 12.6 µM [rising, partial curve, poor fit] |  |
| Cc1occc1C(=O)NNC(=S)Nc1ccccc1 | 2.06 µM [falling, full curve] |  |
| Cc1ccc(-c2noc(CSc3nnc(Cc4ccccc4)n3-c3ccc(Cl)cc3)n2)cc1 | 1.84 µM [falling, partial curve, poor fit] |  |
| COc1ccc(NC(=S)N(CCN2CCOCC2)C2CCN(C(C)=O)CC2)cc1Cl | 11.2 µM [rising, partial curve, poor fit] |  |
| Nc1ncnc2c1ncn2C1OC(CO)C(O)C1N (configuration not stated) | 6.31 µM [falling, single point] |  |
| CCc1ccc(N2CC(C(=O)OCC(=O)Nc3ccccc3C)CC2=O)cc1 (configuration not stated) | 29.1 µM [rising, partial curve, poor fit] | 32.6 µM [falling, partial curve, poor fit] |
| NC(=O)Cn1c(=O)n(CCCC(=O)NC2CCN(Cc3ccccc3)CC2)c(=O)c2ccccc21 | 11.6 µM [rising, partial curve] |  |

Taken from above:
`CC(=O)Nc1ccc(S(=O)(=O)n2nc(-c3ccc(C)cc3)nc2N)cc1` – AC50 [1]: 35.5 µM [rising, partial curve, poor fit]
`C[C@H]1NC(=O)[C@@]2(C)[C@H](c3ccccc3)[C@H]3COc4ccccc4[C@@H]3N2C1=O` – AC50 [1]: 2.31 µM [falling, partial curve, poor fit]
`N#CCCC12CCCCC1=Nc1ccccc12` (configuration not stated) – AC50 [1]: 0.891 µM [rising, full curve, poor fit]

Carrying on.

| SMILES | AC50 [1] | AC50 [2] |
| --- | --- | --- |
| O=C(Cn1cc(C(F)(F)F)ccc1=O)N1CCc2ccccc2C1 | 5.17 µM [rising, full curve, poor fit] |  |
| CCOC(=O)C1=C(C)NC(=O)NC1 | 3.16 µM [falling, single point] |  |
| COc1ccc(-c2csc(NC(=O)Cc3cccc4ccccc34)c2C(=O)O)cc1 | 3.55 µM [rising, full curve, poor fit] |  |
| COc1ccc(-c2csc(-c3cccs3)n2)c(OC)c1 | 4.47 µM [rising, partial curve, poor fit] |  |
| Cc1cc(C)c(NC(=O)c2oc3ccccc3c2COc2ccccc2)c(C)c1 | 2.91 µM [falling, full curve] |  |
| CCS(=O)(=O)C1=NN2C(=N)/C(=C\c3ccc(OC(=O)c4ccco4)c(Br)c3)C(=O)N=C2S1 | 1.78 µM [falling, full curve] |  |
| O=C(NCc1ccccc1CN1CCCC1)c1cccc(N2CCCC2=O)c1 | 29.1 µM [rising, single point] |  |
| CCCC(C(=O)O)N1C(=O)/C(=C/c2cccn2C)SC1=S (configuration not stated) | 25.9 µM [falling, partial curve] | 20.6 µM [rising, partial curve, poor fit] |
| COc1ccc2[nH]c(=O)c(CNc3ccccc3)cc2c1 | 7.08 µM [rising, partial curve, poor fit] |  |
| Fc1ccc(-c2nnc(CN3CCC(c4nc5ccccc5s4)CC3)o2)cc1 | 8.2 µM [rising, partial curve, poor fit] |  |
| COc1ccc(C2=Nc3cc(C)ccc3OC2)cc1 | 0.501 µM [rising, full curve, poor fit] |  |
| O=C(O)c1cccc(NC(=S)N/N=C/c2c[nH]c3ccccc23)c1 | 2.82 µM [falling, partial curve] |  |
| O=c1cc(C(Cl)(Cl)Cl)oc2c1ccc1ccccc12 | 3.55 µM [falling, partial curve, poor fit] |  |
| COCCCNc1nc2nonc2nc1N1CCC(C(C)N2CCOCC2)CC1 (configuration not stated) | 2 µM [rising, full curve, poor fit] |  |
| O=C(c1ccccc1O)N1N=C(c2ccccc2)CC1(O)C(F)(F)F (configuration not stated) | 15.8 µM [falling, single point] |  |
| COc1cccc(NC(=O)C(=O)NCCc2ccc(F)cc2)c1 | 10 µM [falling, partial curve] |  |
| COc1cc(C=O)c(Br)cc1OCc1ccc(C)cc1 | 35.5 µM [rising, single point] |  |
| CCOC(=O)CCCCC(=O)c1[nH]c(=O)[nH]c1CSc1nc(C)cc(=O)[nH]1 | 29.1 µM [rising, single point] |  |
| N#CCSc1n[nH]c2nc3c(c(=O)n12)C1(CCCC1)Cc1ccccc1-3 | 35.5 µM [falling, single point] |  |
| COC(=O)c1ccc(NC(=O)CSc2nc3ccccc3c(=O)[nH]2)cc1 | 1.3 µM [falling, full curve, poor fit] |  |

| SMILES | AC50 [1] | AC50 [2] |
| --- | --- | --- |
| CCN(CC)S(=O)(=O)c1cnccc1N1CCN(c2cccc(Cl)c2)CC1 | 29.1 µM [falling, single point] |  |
| COC(=O)COc1ccc(-c2ccc(F)cc2)cc1C=O | 17.8 µM [rising, single point] |  |
| NS(=O)(=O)c1cc(C(=O)OCC(=O)Nc2ccc(N3CCCCC3)cc2)ccc1Cl | 10 µM [rising, partial curve] |  |
| Cc1cccc(N2N=C(C(=O)Nc3ccc(Cl)c(S(=O)(=O)N4CCOCC4)c3)CCC2=O)c1 | 9.2 µM [rising, partial curve, poor fit] |  |
| COc1ccccc1CNC(=O)CCC1N=C2c3ccccc3N=C(SCC(=O)NCCc3ccccc3)N2C1=O (configuration not stated) | 6.31 µM [falling, single point] |  |
| O=C(Nc1nc(-c2nc3ccccc3s2)cs1)C1COc2ccccc2O1 (configuration not stated) | 18.4 µM [falling, single point] |  |
| Fc1cccc(CSc2ccc(-c3ccc4c(c3)OCO4)nn2)c1 | 2.59 µM [rising, full curve, poor fit] |  |
| COc1ccc(/C=C2\SC(=S)N(C(C)C(=O)NC3C=CS(=O)(=O)C3)C2=O)cc1 (configuration not stated) | 12.6 µM [falling, single point] |  |
| O=C(CCS(=O)(=O)c1ccccc1)N(CCCN1CCOCC1)c1nc2ccccc2s1 | 23.1 µM [falling, single point] |  |
| Cc1nc2ccc(NC(=S)N3CCN(c4ccccn4)CC3)cc2nc1C | 2.91 µM [rising, partial curve, poor fit] |  |
| CCC1=C(OC(=O)N(CC)CC)N2C(=O)OC(=NCCc3c[nH]c4ccccc34)[C@]2(Cc2ccccc2)[C@H]2C1=CC[C@H]1C(=O)N(CC(=O)OC)C(=O)[C@H]12 | 7.94 µM [falling, partial curve, poor fit] |  |
| Cc1ccccc1C1=NC(C(F)(F)F)(C(F)(F)F)c2c(n(C)c(=O)n(C)c2=O)N1 | 11.6 µM [rising, partial curve, poor fit] | 14.6 µM [falling, partial curve, poor fit] |
| Cc1ccc(C)c(NC2=NS(=O)(=O)c3ccccc32)c1 | 13 µM [rising, partial curve, poor fit] |  |
| CCS(=O)c1ccccc1C(=O)OCC(=O)Nc1ccc2ccccc2c1 (configuration not stated) | 9.2 µM [falling, single point] |  |
| Clc1ccc2c(NCc3ccccn3)ccnc2c1 | 11.2 µM [falling, single point] |  |
| Cc1[nH][nH]c(=O)c1C(c1c(C)[nH][nH]c1=O)c1cn(Cc2ccccc2Cl)c2ccccc12 | 0.0517 µM [rising, full curve, poor fit] | 25.9 µM [falling, single point] |
| c1ccc(OCCOc2ncnc3sccc23)cc1 | 6.51 µM [rising, partial curve, poor fit] | 6.51 µM [falling, partial curve, poor fit] |
| CN(C)S(=O)(=O)Oc1cccc(C(=O)Nc2ccc(Cl)cc2)c1 | 15.8 µM [falling, partial curve, poor fit] |  |
| Cc1cc(C)n2nc(-c3cnn(C)c3C(F)(F)F)c(Cl)c2n1 | 35.5 µM [rising, single point] |  |

Pulled by structure from the list above:

| SMILES | AC50 [1] | AC50 [2] |
| --- | --- | --- |
| Cc1cc(C)n2nc(-c3cnn(C)c3C(F)(F)F)c(Cl)c2n1 | 35.5 µM [rising, single point] |  |
| CCC1=C(OC(=O)N(CC)CC)N2C(=O)OC(=NCCc3c[nH]c4ccccc34)[C@]2(Cc2ccccc2)[C@H]2C1=CC[C@H]1C(=O)N(CC(=O)OC)C(=O)[C@H]12 | 7.94 µM [falling, partial curve, poor fit] |  |
